Laboratory results: PubChem BioAssay AID504744 (Drosophila RNAi Screening Center, 2011)
The screen tested about 23,000 reagents; this is a random part of those that have a named target and a result. Of all reagents, 98 (0.43%) were called active. 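Only hit calls are given; the phospho-dAkt signals, z-scores and hit direction were not deposited.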

Aim: 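Find genes whose loss alters insulin-driven dAkt phosphorylation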 (primary screen)
System: Drosophila Kc167 cells
Reagent: long dsRNA against Drosophila genes, 250 ng dsRNA per well of a 384-well plate
Timing: 3 days of knock-down, then overnight serum-free starvation before stimulation
Challenge: bovine insulin at 387 nM for 10 minutes after 12 h without serum
Read-out: 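Per-well phospho-dAkt level from an in-cell fluorescent antibody stain, divided by a DNA-dye signal; log2 residuals turned into z-scores that take cell number into account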
Hit rule: 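Hit in the insulin screen when the two-replicate mean z-score is more extreme than plus or minus 2.5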

| gene | DRSC id | Outcome |
| --- | --- | --- |
| CG4570 | DRSC15602 | inactive |
| ssp6 | DRSC08791 | inactive |
| ssp6 | DRSC10677 | inactive |
| CG43367 | DRSC08299 | inactive |
| CG43367 | DRSC08301 | inactive |
| CG43367 | DRSC08309 | inactive |
| Orc1 | DRSC07496 | inactive |
| Droj2 | DRSC16450 | inactive |
| ScpX | DRSC03430 | inactive |
| CG11127 | DRSC06043 | inactive |
| dpr15 | DRSC12891 | inactive |
| dpr15 | DRSC14187 | inactive |
| dpr15 | DRSC14188 | inactive |
| Tsp29Fa | DRSC03232 | inactive |
| CG2964 | DRSC00554 | inactive |
| spag4 | DRSC02973 | inactive |
| CG3198 | DRSC18292 | inactive |
| Cyp9b1 | DRSC07389 | inactive |
| CG4658 | DRSC02768 | inactive |
| CG31007 | DRSC14029 | inactive |
| DAT | DRSC07394 | inactive |
| CG13601 | DRSC14604 | inactive |
| Ntf-2r | DRSC02019 | inactive |
| Trs23 | DRSC03190 | inactive |
| Polr2M | DRSC15513 | inactive |
| CG12590 | DRSC12216 | inactive |
| Dora | DRSC19614 | inactive |
| Dora | DRSC19781 | inactive |
| Dora | DRSC20034 | inactive |
| Dora | DRSC20035 | inactive |
| CG12106 | DRSC17805 | inactive |
| Naxd | DRSC09722 | inactive |
| CG32110 | DRSC09220 | inactive |
| RpS30 | DRSC15119 | inactive |
| Ir56c | DRSC06544 | inactive |
| moon | DRSC19497 | inactive |
| Usp16-45 | DRSC18352 | inactive |
| CG17784 | DRSC15268 | inactive |
| CG8093 | DRSC07078 | inactive |
| Hsp60B | DRSC00542 | inactive |
| ATPsynB | DRSC09659 | inactive |
| mtrm | DRSC10322 | inactive |
| Klp68D | DRSC11206 | inactive |
| trp | DRSC17088 | inactive |
| bumpel | DRSC16100 | inactive |
| CG5381 | DRSC02852 | inactive |
| CG14958 | DRSC08417 | inactive |
| Ten-m | DRSC11664 | inactive |
| Ten-m | DRSC11882 | inactive |
| CG10459 | DRSC05991 | inactive |
| CG10459 | DRSC22092 | inactive |
| CG9806 | DRSC18444 | inactive |
| CG9961 | DRSC00738 | inactive |
| Cyp4aa1 | DRSC07368 | inactive |
| mRpL44 | DRSC12306 | inactive |
| Dbct | DRSC19951 | inactive |
| Fur2 | DRSC19817 | inactive |
| Cyp313b1 | DRSC16629 | inactive |
| elav | DRSC18772 | inactive |
| veg (retired record) | DRSC07714 | inactive |
| sw | DRSC20388 | inactive |
| CG14304 | DRSC14783 | inactive |
| bwa | DRSC01749 | inactive |
| bwa | DRSC02310 | inactive |
| Ir87a | DRSC14836 | inactive |
| Polr1F | DRSC02278 | inactive |
| atk | DRSC11418 | inactive |
| atk | DRSC11769 | inactive |
| CG4390 | DRSC15572 | inactive |
| CG7519 | DRSC11834 | inactive |
| Prestin | DRSC10507 | inactive |
| pasi2 | DRSC16380 | inactive |
| CG2871 | DRSC18230 | inactive |
| CG2871 | DRSC21719 | inactive |
| Taf1 | DRSC12607 | inactive |
| SelG | DRSC19808 | inactive |
| tfc | DRSC07953 | inactive |
| tfc | DRSC07954 | inactive |
| tfc | DRSC08626 | inactive |
| tfc | DRSC21704 | inactive |
| Drl-2 | DRSC05393 | inactive |
| Drl-2 | DRSC06155 | inactive |
| Drl-2 | DRSC06858 | inactive |
| asRNA:CR33945 | DRSC14080 | inactive |
| dany | DRSC04141 | inactive |
| CG9641 | DRSC00721 | inactive |
| Ugt35C1 | DRSC16080 | inactive |
| Kap3 | DRSC19426 | inactive |
| CG3625 | DRSC00008 | inactive |
| CG3625 | DRSC00621 | inactive |
| CG8500 | DRSC16434 | inactive |
| cGlr2 | DRSC04017 | inactive |
| CG34133 | DRSC16319 | inactive |
| CG34133 | DRSC22239 | inactive |
| PIG-K | DRSC18496 | inactive |
| COX6B | DRSC19590 | inactive |
| mRpL16 | DRSC18550 | inactive |
| CG11980 | DRSC14456 | inactive |
| ppk17 | DRSC02252 | inactive |
| alpha4GT2 | DRSC15905 | inactive |
| asRNA:CR31084 | DRSC21649 | inactive |
| CG32264 | DRSC08061 | inactive |
| CG32264 | DRSC08167 | inactive |
| CG32264 | DRSC08169 | inactive |
| CG32264 | DRSC08285 | inactive |
| CG32264 | DRSC08437 | inactive |
| CG31606 | DRSC01012 | inactive |

In a second layout: entries from further up
{"gene":"Dora","DRSC id":"DRSC20034","Outcome":"inactive"}
{"gene":"Dora","DRSC id":"DRSC20035","Outcome":"inactive"}
{"gene":"CG12106","DRSC id":"DRSC17805","Outcome":"inactive"}
{"gene":"Naxd","DRSC id":"DRSC09722","Outcome":"inactive"}
